PubChem BioAssay AID686938 – Drosophila RNAi Screening Center, 2013
Assay: 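Fly genes required for calcium entry once internal stores are emptied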 (primary screen). System: Drosophila S2R+ cells. Reagent: long dsRNA against Drosophila genes, about 0.25 µg dsRNA per well, roughly 10,000 cells. Timing: 5 days of knock-down before the calcium assay. Challenge: thapsigargin (SERCA pump blocker) to empty calcium stores; entry signal taken 4 min after adding it. Measured: 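Duplicate raw fluo-4 intensities per well from a plate reader, at rest and four minutes after thapsigargin emptied calcium stores; entry-to-rest ratio filled for only some wells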. Direction: calcium entry signal: higher = stronger calcium signal after store depletion; resting calcium signal: higher = higher resting calcium signal. Active means: 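Hit if the duplicate-averaged plate z-score for entry over resting signal is under −3; wells with weak total dye signal (Fmax z < −2) or more than 5 off-targets removed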. Meaning of the calls: active = strongly reduced calcium entry; inactive = no strong reduction.
In all, the deposit lists about 23,000 reagents; below is a random part of those with a known target gene and a result. Over the whole deposit, 75 (0.33%) are marked active. 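Raw plate signals without normalisation; calls rest on plate z-scores that were not deposited; ratio present for only 364 wells.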 A number with no mark means an inactive call. A plus sign joins genes that one reagent is predicted to hit. Reagent sequences are not shown. Not given: the dose of the treatment.

gene	amplicon	calcium entry signal, replicate 1 (fluorescence units)	calcium entry signal, replicate 2 (fluorescence units)	resting calcium signal, replicate 1 (fluorescence units)	resting calcium signal, replicate 2 (fluorescence units)
ec	DRSC17285	3.08e7	3.23e7	1.53e7	1.32e7
ec	DRSC17286	2.66e7	3.21e7	1.44e7	1.31e7
ec	DRSC18658	2.40e7	3.51e7	1.27e7	1.49e7
CHKov1	DRSC01566	2.58e7	4.17e7	1.55e7	1.77e7
CHKov1	DRSC01696	3.23e7	4.62e7	1.88e7	2.38e7
CHKov1	DRSC14258	3.18e7	5.79e7	1.74e7	2.30e7
CHKov1	DRSC20937	3.11e7	4.22e7	1.37e7	1.83e7
CG14839	DRSC14963	2.49e7	2.50e7	1.28e7	1.20e7
Set	DRSC16861	3.56e7	4.37e7	1.55e7	1.76e7
MED7	DRSC16059	2.27e7	2.43e7	1.35e7	1.40e7
CG18538	DRSC06765	4.90e7	7.17e7	2.19e7	3.11e7
CG40245 (retired record)	DRSC21012	3.61e7	3.78e7	1.57e7	1.81e7
CG15356	DRSC00386	2.85e7	2.60e7	1.40e7	1.23e7
Coa7	DRSC20967	2.65e7	3.77e7	1.51e7	1.82e7
CG3663	DRSC04402	4.43e7		2.15e7	
CG12054	DRSC14467	2.67e7	2.28e7	1.60e7	1.24e7
CG12054	DRSC23137	4.48e7	3.04e7	2.25e7	1.37e7
CG5255	DRSC15754	3.25e7	6.62e7	1.68e7	6.92e7
Vps37B	DRSC12165	2.59e7	2.92e7	1.33e7	1.43e7
CG13912	DRSC08381	2.61e7	3.50e7	1.37e7	1.54e7
CG11147	DRSC02129	2.81e7	3.02e7	1.40e7	1.36e7
CG3735	DRSC04411	2.48e7		1.31e7	
CG13559	DRSC04197	3.39e7	4.50e7	1.73e7	2.00e7
Meltrin	DRSC16274	2.98e7	4.59e7	1.39e7	1.96e7
Meltrin	DRSC21693	3.75e7	3.50e7	2.18e7	1.78e7
CG18048	DRSC12573	3.59e7	2.71e7	1.90e7	1.40e7
Sse	DRSC09746	2.63e7	1.96e7	2.23e7	1.06e7
Mco4	DRSC20061	2.54e7	3.25e7	1.44e7	1.56e7
CG17075	DRSC00483	3.86e7		2.03e7	
Rpp20 + CG33932	DRSC19467	2.53e7	3.81e7	1.33e7	1.56e7
CG11109	DRSC11633	2.48e7	3.34e7	1.21e7	2.19e7
Pink1	DRSC18361	3.66e7	4.10e7	1.82e7	1.81e7
Samuel	DRSC02156	2.84e7	4.24e7	1.50e7	1.77e7
Samuel	DRSC02401	3.97e7	3.25e7	1.91e7	1.56e7
Samuel	DRSC02402	3.89e7	6.82e7	1.83e7	2.73e7
Samuel	DRSC21731	2.21e7	2.95e7	1.26e7	1.40e7
Samuel	DRSC23114	4.82e7	3.14e7	2.34e7	1.49e7
CheB42a	DRSC22881	4.61e7	3.33e7	2.30e7	1.43e7
Cyt-c-d	DRSC03309	3.24e7	2.29e7	1.47e7	1.08e7
CG18764	DRSC15391	3.86e7	3.61e7	1.91e7	1.78e7
